Data source: PubChem BioAssay AID1259308 (NCATS, 2017)
Screen: 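Knock-downs that increase output of a recombinant reporter protein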 (primary screen). Cell system: human HEK293 embryonic kidney cells stably expressing firefly luciferase (HEK-CMV-Luc2-Hygro). Knock-down reagent: single siRNA against human genes, 0.8 pmol siRNA per well. Time to read-out: 72 h. Read-out: 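Luciferase light (ONE-Glo) measured on one replicate plate set and viability (CellTiter-Glo) on the other, scaled to a negative control siRNA, with robust z-scores and luciferase per cell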. Scale: total luciferase, z-score and total luciferase, % of control: higher = more reporter protein produced. Call rule: 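Active when the median/MAD z-score for overall luciferase is greater than 3; a gene was taken forward for validation with new siRNAs if at least two of its three siRNAs passed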. Calls: active = raised luciferase; inactive = no rise.
The deposit covers about 59,000 reagents; below is a part drawn at random. About 1,510 of all reagents (2.6%) count as active. 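Calls use total luciferase alone and ignore viability, so some active siRNAs may act by altering cell number.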 Entries without a mark were called inactive. The numbers tell different reagents against one gene apart. Not all columns of the deposit are shown. Reagent sequences are not shown.

| Gene | reagent no. | total luciferase, z-score | total luciferase, % of control |
| --- | --- | --- | --- |
| CLN5 (GeneID 1203) | 1 | 1.23 | 106 |
| CLN5 (GeneID 1203) | 2 | 0.405 | 90 |
| CLN5 (GeneID 1203) | 3 | 0.324 | 88.3 |
| OARD1 (GeneID 221443) | 1 | 1.55 | 113 |
| OARD1 (GeneID 221443) | 2 | -1.14 | 59.2 |
| OARD1 (GeneID 221443) | 3 | 1.23 | 106 |
| C9orf72 (GeneID 203228) | 1 | -0.754 | 66.9 |
| C9orf72 (GeneID 203228) | 2 | -1.15 | 58.9 |
| C9orf72 (GeneID 203228) | 3 | -0.164 | 78.6 |
| FRMD1 (GeneID 79981) | 1 | 0.0316 | 82.5 |
| FRMD1 (GeneID 79981) | 2 | 0.715 | 96.1 |
| FRMD1 (GeneID 79981) | 3 | 0.421 | 90.3 |
| HMGB1P1 (GeneID 10357) | 1 | 1.82 | 118 |
| HMGB1P1 (GeneID 10357) | 2 | -0.704 | 67.9 |
| HMGB1P1 (GeneID 10357) | 3 | -0.376 | 74.4 |
| GFRA1 (GeneID 2674) | 1 | -1.41 | 53.9 |
| GFRA1 (GeneID 2674) | 2 | 1.42 | 110 |
| GFRA1 (GeneID 2674) | 3 | -2.1 | 40 |
| TSNARE1 (GeneID 203062) | 1 | 1.01 | 102 |
| TSNARE1 (GeneID 203062) | 2 | 0.999 | 102 |
| TSNARE1 (GeneID 203062) | 3 | -0.817 | 65.6 |
| ZMPSTE24 (GeneID 10269) | 1 | -1.35 | 55.1 |
| ZMPSTE24 (GeneID 10269) | 2 | -0.057 | 80.8 |
| ZMPSTE24 (GeneID 10269) | 3 | 0.92 | 100 |
| NLRP6 (GeneID 171389) | 1 | -2.34 | 35.4 |
| NLRP6 (GeneID 171389) | 2 | -0.501 | 71.9 |
| NLRP6 (GeneID 171389) | 3 | -0.529 | 71.4 |
| CIRBP (GeneID 1153) | 1 | -0.331 | 75.3 |
| CIRBP (GeneID 1153) | 2 | 0.687 | 95.5 |
| CIRBP (GeneID 1153) | 3 | 0.356 | 89 |
| CDC23 (GeneID 8697) | 1 | -1.95 | 43.1 |
| CDC23 (GeneID 8697) | 2 | 0.346 | 88.8 |
| CDC23 (GeneID 8697) | 3 | -1.26 | 56.9 |
| AGO2 (GeneID 27161) | 1 | -0.697 | 68 |
| AGO2 (GeneID 27161) | 2 | 0.154 | 85 |
| AGO2 (GeneID 27161) | 3 | -0.176 | 78.4 |
| CCDC112 (GeneID 153733) | 1 | 0.203 | 85.9 |
| CCDC112 (GeneID 153733) | 2 | -1.94 | 43.3 |
| CCDC112 (GeneID 153733) | 3 | 0.138 | 84.6 |
| TBCA (GeneID 6902) | 1 | 1.56 | 113 |
| TBCA (GeneID 6902) | 2 | -0.168 | 78.6 |
| TBCA (GeneID 6902) | 3 | 0.891 | 99.6 |
| IFRD2 (GeneID 7866) | 1 | 1.12 | 104 |
| IFRD2 (GeneID 7866) | 2 | -2.37 | 34.7 |
| IFRD2 (GeneID 7866) | 3 | -1.04 | 61.3 |
| CCDC27 (GeneID 148870) | 1 | -0.388 | 74.2 |
| CCDC27 (GeneID 148870) | 2 | 0.143 | 84.7 |
| CCDC27 (GeneID 148870) | 3 | -0.131 | 79.3 |
| POLR3A (GeneID 11128) | 1 | 1.28 | 107 |
| POLR3A (GeneID 11128) | 2 | 1.31 | 108 |
| POLR3A (GeneID 11128) | 3 | -1.55 | 51.1 |
| GALC (GeneID 2581) | 1 | 0.18 | 85.5 |
| GALC (GeneID 2581) | 2 | 0.233 | 86.5 |
| GALC (GeneID 2581) | 3 | 0.464 | 91.1 |
| SPINDOC (GeneID 144097) | 1 | 2.99 | 141 |
| SPINDOC (GeneID 144097) | 2 | 1.39 | 109 |
| SPINDOC (GeneID 144097) | 3 | 1.71 | 116 |

A run of entries taken from the entries so far, for reference:
| Gene | reagent no. | total luciferase, z-score | total luciferase, % of control |
| --- | --- | --- | --- |
| CCDC112 (GeneID 153733) | 1 | 0.203 | 85.9 |
| CCDC112 (GeneID 153733) | 2 | -1.94 | 43.3 |
| CCDC112 (GeneID 153733) | 3 | 0.138 | 84.6 |
| TBCA (GeneID 6902) | 1 | 1.56 | 113 |
| TBCA (GeneID 6902) | 2 | -0.168 | 78.6 |
